Results: patent US10251881B2, “Particulate materials” (priority 2002, dated 2019)
For at least one compound, name, drawing or mass did not settle the structure.

Assays:
[1] = Flocculation volume of particulate drug suspended in propellant (HFA 134a or HFA 227ea); type: physicochemical; details: for flocculation volume: 1% w/v, 22° C.
Source text: Flocculation volume, sometimes referred to as “sedimentation volume”, can be measured by a conventional and relatively simple method. The substance under test, in particulate form, is suspended in the desired fluid vehicle at a suitable concentration. The mixture should be well agitated (typically, simply by shaking) to ensure a uniform dispersion of particles in the fluid at the start of measurement. Immediately after agitation ceases, timing begins. The mixture is left to stand, usually under ambient conditions, and the degree of settling or creaming of the solid observed over time. The flocculation volume of the mixture at a given point in time is the volume of fluid which is still occupied by the particulate dispersion, expressed as a percentage of the total fluid volume. A higher flocculation volume thus indicates less settling/creaming, which indicates improved performance. All references herein to flocculation volumes, unless otherwise stated, are to measurements made at 22° C. […] Measurements were taken at 22° C.

[2] = Particle size of the powders (AEROSIZER, SYMPATEC); type: physicochemical; details: powder
Source text: Particle sizes may be measured for instance using (a) an AEROSIZER™ time-of-flight instrument (which gives an aerodynamic equivalent particle diameter, MMAD) or (b) a laser diffraction sensor such as the HELOS™ system available from SYMPATEC™ GmbH, Germany (which provides a geometric projection equivalent MMD). MMADs may also be assessed using a cascade impactor. Volume mean diameters may be obtained in both cases using commercially available software packages.

Compound	flocculation volume ([1]; HFA 134a, after 10 minutes) [%]	rate of change in flocculation volume (flocculation rate) ([1]; HFA 134a, averaged over the first 2 minutes) [% per minute]	flocculation volume ([1]; HFA 227ea, after 5 minutes)	flocculation volume ([1]; HFA 227ea, after 10 minutes)	rate of change in flocculation volume (flocculation rate) ([1]; HFA 227ea, averaged over the first 2 minutes) [% per minute]	MMAD ([2]; AEROSIZER) [μm]	flocculation volume ([1]; HFA 134a, after 2 minutes)	flocculation volume ([1]; HFA 134a, after 6 minutes)	rate of change in flocculation volume (flocculation rate) ([1]; HFA 134a, averaged over the first minute) [% per minute]	rate of change in flocculation volume (flocculation rate) ([1]; HFA 227ea, averaged over the first minute) [% per minute]	MMD ([2]; instrument not stated) [μm]
CCCC1O[C@@H]2C[C@H]3[C@@H]4CCC5=CC(=O)C=C[C@]5(C)[C@H]4[C@@H](O)C[C@]3(C)[C@]2(C(=O)CO)O1 (some centres unmarked) [budesonide SEDS® sample, Budesonide]	80	−3.5	greater than 50%	greater than 40%	−13	1.65					
CCCC1O[C@@H]2C[C@H]3[C@@H]4CCC5=CC(=O)C=C[C@]5(C)[C@H]4[C@@H](O)C[C@]3(C)[C@]2(C(=O)CO)O1 (some centres unmarked) [budesonide micronized sample, budesonide]							below 40%	less than 30%	−37	44	1.5
